Laboratory results reported in PMC8040464.
Results are given in words; binding and its absence hold for the method and conditions named. Binding seen in cells or lysates may run through a third protein. Some entries that bind do so weakly or less than the wild type. Tags and fused reporters may be left off the sequences shown.

Sequences of proteins named here, by UniProt entry; tags and fusion partners are left off.
UniProt Q99558: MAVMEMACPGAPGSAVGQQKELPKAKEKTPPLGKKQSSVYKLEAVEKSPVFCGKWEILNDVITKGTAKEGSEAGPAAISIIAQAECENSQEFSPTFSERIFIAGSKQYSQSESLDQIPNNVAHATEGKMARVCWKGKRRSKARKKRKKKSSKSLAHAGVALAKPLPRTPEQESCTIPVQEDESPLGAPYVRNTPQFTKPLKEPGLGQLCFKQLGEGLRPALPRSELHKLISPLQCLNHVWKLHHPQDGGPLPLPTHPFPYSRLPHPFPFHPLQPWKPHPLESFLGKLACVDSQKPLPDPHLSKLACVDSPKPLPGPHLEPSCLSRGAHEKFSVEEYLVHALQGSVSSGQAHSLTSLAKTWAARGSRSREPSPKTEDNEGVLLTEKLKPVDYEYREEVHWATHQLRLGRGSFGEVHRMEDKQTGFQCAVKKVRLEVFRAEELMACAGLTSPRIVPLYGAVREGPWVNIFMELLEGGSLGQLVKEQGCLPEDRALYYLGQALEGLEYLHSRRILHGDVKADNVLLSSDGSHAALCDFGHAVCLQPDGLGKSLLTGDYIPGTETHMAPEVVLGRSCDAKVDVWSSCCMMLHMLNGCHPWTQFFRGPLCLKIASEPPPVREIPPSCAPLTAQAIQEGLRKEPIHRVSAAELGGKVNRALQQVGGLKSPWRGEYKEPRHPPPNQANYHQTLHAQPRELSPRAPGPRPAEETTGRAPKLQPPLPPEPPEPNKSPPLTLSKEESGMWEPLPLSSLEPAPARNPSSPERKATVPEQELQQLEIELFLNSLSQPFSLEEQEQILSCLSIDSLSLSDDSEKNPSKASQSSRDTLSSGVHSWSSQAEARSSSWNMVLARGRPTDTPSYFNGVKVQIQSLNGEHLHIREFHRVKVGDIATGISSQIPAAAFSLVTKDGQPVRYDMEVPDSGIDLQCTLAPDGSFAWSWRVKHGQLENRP

Biological target: T1, HA-tagged IKKe (inhibitor of nuclear factor kappa-B kinase epsilon) (UniProt Q14164)
T1 sequence: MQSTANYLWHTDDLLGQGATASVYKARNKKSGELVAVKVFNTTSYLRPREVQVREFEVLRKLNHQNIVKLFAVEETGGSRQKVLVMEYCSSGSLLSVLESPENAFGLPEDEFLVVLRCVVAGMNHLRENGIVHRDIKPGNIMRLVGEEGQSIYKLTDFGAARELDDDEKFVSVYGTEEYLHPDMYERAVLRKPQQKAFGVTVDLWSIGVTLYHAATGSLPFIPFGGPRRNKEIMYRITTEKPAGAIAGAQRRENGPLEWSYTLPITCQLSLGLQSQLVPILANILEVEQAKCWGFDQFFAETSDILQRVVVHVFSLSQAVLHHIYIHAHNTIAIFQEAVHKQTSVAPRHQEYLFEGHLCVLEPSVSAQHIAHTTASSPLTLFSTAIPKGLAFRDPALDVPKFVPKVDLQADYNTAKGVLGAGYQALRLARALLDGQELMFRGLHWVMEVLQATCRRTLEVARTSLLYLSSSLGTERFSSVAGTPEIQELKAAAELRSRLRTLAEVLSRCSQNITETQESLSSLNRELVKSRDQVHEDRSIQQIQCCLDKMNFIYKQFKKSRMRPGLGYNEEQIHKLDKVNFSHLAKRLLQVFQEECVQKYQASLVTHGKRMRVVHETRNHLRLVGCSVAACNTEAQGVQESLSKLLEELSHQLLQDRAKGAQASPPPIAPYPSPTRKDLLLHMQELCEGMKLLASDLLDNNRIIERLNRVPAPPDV
Assay: co-IP; HEK293T cells co-transfected with HA-IKKe and Myc-NIK, with MG132; immunoprecipitation with HA-tag antibody, immunoblot with NIK (or Myc) antibody

Myc-tagged NIK (NF-κB-inducing kinase, MAP3K14) (from UniProt Q99558 1-947)
binding: binds
